# Measured data: PubChem BioAssay AID1671195 (Yale University, 2021)
# Screen: 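Genes whose knockdown alters LDL uptake in liver cancer cells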 (primary screen)
# System: human Huh7 hepatoma cells
# Reagent: siRNA pool against human genes, 18 nM
# Duration: about 2 to 2.5 days of knockdown, then 8 h LDL uptake
# Conditions: DiI-labelled LDL at 30 µg/ml for 8 h, in lipoprotein-deficient serum medium
# Detection: 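Fluorescent LDL signal imaged in cells, scaled to the plate median, robust z-score for each replicate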
# Direction: robust z-score: higher = more LDL uptake after knockdown
# Call rule: 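a gene counts as active if at least two replicate z-scores exceed ±2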
# The whole screen tested about 22,000 reagents; this is a random part of them. About 1,510 of all reagents (6.9%) count as active. 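Active includes knockdowns raising or lowering LDL uptake; positive z-scores mean more uptake, negative mean less.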 A number with no mark means an inactive call.
"robust z-score, replicate 1","robust z-score, replicate 2","robust z-score, replicate 3",gene
-1.12,-1.21,-0.664,LTBR (lymphotoxin beta receptor)
-0.192,0.294,0.0757,CLK4 (CDC like kinase 4)
-0.594,-0.555,-0.619,"IDO2 (indoleamine 2,3-dioxygenase 2)"
0.791,1.17,0.352,"ALG9 (ALG9 alpha-1,2-mannosyltransferase)"
-0.525,1.79,-1.49,OBSL1 (obscurin like cytoskeletal adaptor 1)
-1.06,-0.4,1.14,TESMIN (testis expressed metallothionein like protein)
1.67,0.947,1.26,NAT10 (N-acetyltransferase 10)
-0.588,-0.0566,-0.676,"RTF1 (RTF1 homolog, Paf1/RNA polymerase II complex component)"
-0.912,-0.442,-0.732,DPY19L3-DT (DPY19L3 divergent transcript)
-0.423,-0.739,-0.64,LRRC75B (leucine rich repeat containing 75B)
-0.101,-0.302,0.65,GNE
-0.947,0.435,0.0137,LINC00312 (long independently transcribed non-coding RNA 312)
-0.712,-0.463,-0.896,PACSIN2 (protein kinase C and casein kinase substrate in neurons 2)
-0.383,-0.42,-0.916,ALDH16A1 (aldehyde dehydrogenase 16 family member A1)
1.37,1.24,1.09,CXXC4 (CXXC finger protein 4)
-1.05,-1.95,-1.03,TRIM22 (tripartite motif containing 22)
1.06,1.56,1.32,SDSL (serine dehydratase like)
0.688,0.975,1.3,CDHR2 (cadherin related family member 2)
-0.581,-0.675,-0.835,SIAH3 (siah E3 ubiquitin protein ligase family member 3)
0.402,0.339,0.884,PARAIL (palmitic acid regulated anti-inflammatory lncRNA)
-1.19,-1.24,-1.07,SLC2A9
-1.51,-0.947,-1.94,DRD4 (dopamine receptor D4)
-0.0035,-0.436,-0.14,ZNF394 (zinc finger protein 394)
0.598,-0.425,-0.349,ZFP30 (ZFP30 zinc finger protein)
1.15,-0.22,0.315,SOCS1 (suppressor of cytokine signaling 1)
-1.53,-0.174,-2.43,DCTN4 (dynactin subunit 4)
0.26,-0.193,-0.261,SHROOM2 (shroom family member 2)
2.22,0.178,0.474,ZAN (zonadhesin)
1.13,1.09,1.11,LOC339539
0.717,0.745,0.0463,LOC388652 (retired record)
0.425,0.969,0.765,RTL8B (retrotransposon Gag like 8B)
-1.26,-1.93,-0.289,GOLPH3L (golgi phosphoprotein 3 like)
-0.547,-0.81,-0.664,TEAD3 (TEA domain transcription factor 3)
-0.758,0.197,0.498,LOC392531 (retired record)
-0.77,0.00497,-1.49,INTS8 (integrator complex subunit 8)
-1.59,-1.61,-1.58,LGMN (legumain)
-0.552,-0.379,-0.206,ACBD4 (acyl-CoA binding domain containing 4)
2.91 (active),2.01,1.14,THG1L (tRNA-histidine guanylyltransferase 1 like)
-2.16 (active),-2.11,-0.902,LYRM9 (LYR motif containing 9)
-1.36,-1.24,-0.833,LOC400964 (retired record)
0.254,0.218,-0.0106,CCT8 (chaperonin containing TCP1 subunit 8)
-1.1,-0.832,-1.48,ENPP1 (ectonucleotide pyrophosphatase/phosphodiesterase 1)
-0.167,-0.455,1.42,ATG13 (autophagy related 13)
-1.28,-1.45,-1.46,LOC390613 (retired record)
-0.945,-0.673,0.0728,DCD (dermcidin)
0.809,0.58,0.541,DTHD1 (death domain containing 1)
0.975,-1.65,0.424,LOC402336 (retired record)
0.615,-0.887,-0.506,TIAM2 (TIAM Rac1 associated GEF 2)
0.815,0.968,0.974,"SEC23B (SEC23 homolog B, COPII component)"
-2.34,-0.247,0.0954,GLOD4 (glyoxalase domain containing 4)
1.88,1.38,3.23,FNBP1L (formin binding protein 1 like)
0.175,-0.951,0.0802,ODF2L (outer dense fiber of sperm tails 2 like)
0.975,0.554,0.6,LOC440372 (retired record)
0.703,1.21,1.88,PAX7 (paired box 7)
0.128,0.244,0.0704,LOC441428 (retired record)
-0.518,-0.75,-0.91,EHBP1 (EH domain binding protein 1)
0.0129,-0.173,-0.316,OR9A2 (olfactory receptor family 9 subfamily A member 2)
1.13,0.499,0.944,R3HCC1 (R3H domain and coiled-coil containing 1)
0.395,0.624,0.435,KLKB1 (kallikrein B1)
0.161,2.3,0.6,H2AC16 (H2A clustered histone 16)
1.37,0.632,0.926,FFAR2 (free fatty acid receptor 2)
-0.79,-0.725,-1.05,MAGEB16 (MAGE family member B16)
-0.247,0.104,-1.3,IBTK (inhibitor of Bruton tyrosine kinase)
0.764,-0.302,-1.6,OR1L1 (olfactory receptor family 1 subfamily L member 1)
0.0734,-0.0565,-0.525,PTPA (protein phosphatase 2 phosphatase activator)
-0.532,0.586,0.962,TRIM5 (tripartite motif containing 5)
-0.987,-0.653,-1.06,CDH7 (cadherin 7)
1.61,0.918,2.48,NCOA3 (nuclear receptor coactivator 3)

Laid out differently: entries from further up.
{"gene":"LOC339539","robust z-score, replicate 1":1.13,"robust z-score, replicate 2":1.09,"robust z-score, replicate 3":1.11}
{"gene":"LOC388652 (retired record)","robust z-score, replicate 1":0.717,"robust z-score, replicate 2":0.745,"robust z-score, replicate 3":0.0463}
{"gene":"RTL8B (retrotransposon Gag like 8B)","robust z-score, replicate 1":0.425,"robust z-score, replicate 2":0.969,"robust z-score, replicate 3":0.765}
{"gene":"GOLPH3L (golgi phosphoprotein 3 like)","robust z-score, replicate 1":-1.26,"robust z-score, replicate 2":-1.93,"robust z-score, replicate 3":-0.289}
